This note sets out measurements from patent US20230063922A1.

Amino acid sequences for entries named in this document (tags omitted). A change or cut given only in a name is not applied to a line headed by its entry.
UniProt P62304: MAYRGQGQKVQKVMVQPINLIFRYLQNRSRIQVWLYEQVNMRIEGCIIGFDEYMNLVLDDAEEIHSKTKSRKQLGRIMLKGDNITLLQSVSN
UniProt P62314: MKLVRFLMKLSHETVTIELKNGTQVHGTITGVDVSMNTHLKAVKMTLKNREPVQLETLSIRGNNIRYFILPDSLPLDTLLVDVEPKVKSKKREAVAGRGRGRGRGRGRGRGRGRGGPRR
UniProt P62308: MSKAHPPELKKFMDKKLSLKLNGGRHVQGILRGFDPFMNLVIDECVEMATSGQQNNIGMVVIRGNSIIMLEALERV
UniProt P62318: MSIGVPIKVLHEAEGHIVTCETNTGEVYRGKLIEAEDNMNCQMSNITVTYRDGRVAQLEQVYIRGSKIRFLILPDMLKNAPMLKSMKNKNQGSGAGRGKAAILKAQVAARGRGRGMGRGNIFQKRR

The target in one assay is SmD2-EGF. Put plainly: co-expression in E. coli, co-purification through the His tag on SmD1 (HisTrap, heparin).
The target of assay [1] is SmE (Homo sapiens (Human)) (UniProt P62304). In words: co-expression in E. coli, co-purification through the His tag on SmG.
For assay [2] the target is unchanged. In words: co-expression in E. coli, co-purification through the His tag on SmG (HisTrap, heparin).
Another assay concerns the target SmB1-95-GALA3. In words: co-expression in E. coli, co-purification through the His tag on SmD3 (HisTrap, heparin).

No constants are given. Whether binding was seen depends on the method and setting. In cells and extracts the contact can be indirect. Some entries that bind do so weakly or less than the wild type.

Take “His-SUMO-SmD1 (from UniProt P62314 1-118)”: in the assay with SmD2-EGF, the binding result is listed as “binds”. As to SmG-His (from UniProt P62308 1-76), the binding result in assay [1] and in assay [2] was “binds” throughout.

As to His-SmD3 (from UniProt P62318 2-126), the binding entry with SmB1-95-GALA3 is given as “binds”.
